Data on 17 substances can be found in patent US5663149A (priority 1994, dated 1997).

The nature of the data set: general procedure: solution-phase peptide synthesis. The conditions noted are these: coupling step.

As to “L-Dolavalyl-L-Valyl-N-Methyl-(S,S,R)-Dolaisoleuinyl-(S,R,R)-Dolaproinyl-L- (p-Chloro)phenylalanine N-2-(6-Chloro)benzothiazole Amide”, the step yield is on record as 56%.
Next, “L-Dolavalyl-L-Valyl-N-Methyl-(S,S,R)-Dolaisoleuinyl-(S,R,R)-Dolaproinyl-L- Isoleucine N-3-Quinoline Amide”: 81%; “L-Dolavalyl-L-Valyl-N-Methyl-(S,S,R)-Dolaisoleuinyl-(S,R,R)-Dolaproinyl-L- Methionine N-1-(2-p-Chlorophenylethyl) Amide”: 77%; “L-Dolavalyl-L-Valyl-N-Methyl-(S,S,R)-Dolaisoleuinyl-(S,R,R)-Dolaproinyl-L- Methionine N-2,5-Dichlorophenyl Amide”: 87%.
Next, “L-Dolavalyl-L-Valyl-N-Methyl-(S,S,R)-Dolaisoleuinyl-(S,R,R)-Dolaproinyl-L- Methionine N-2-Benzothiazole Amide”: 87%.
For “L-Dolavalyl-L-Valyl-N-Methyl-(S,S,R)-Dolaisoleuinyl-(S,R,R)-Dolaproinyl-L- Methionine N-2-Chlorophenyl Amide” the value was 89%; for “L-Dolavalyl-L-Valyl-N-Methyl-(S,S,R)-Dolaisoleuinyl-(S,R,R)-Dolaproinyl-L- Methionine N-2-Pyridyl Amide”, 77%; for “L-Dolavalyl-L-Valyl-N-Methyl-(S,S,R)-Dolaisoleuinyl-(S,R,R)-Dolaproinyl-L- Methionine N-3-Chlorophenyl Amide”, 88%.
The substance “L-Dolavalyl-L-Valyl-N-Methyl-(S,S,R)-Dolaisoleuinyl-(S,R,R)-Dolaproinyl-L- Methionine N-3-Quinoline Amide” returned a step yield of 95%.
For “L-Dolavalyl-L-Valyl-N-Methyl-(S,S,R)-Dolaisoleuinyl-(S,R,R)-Dolaproinyl-L- Methionine N-4-Chlorophenyl Amide” the value was 79%; for “L-Dolavalyl-L-Valyl-N-Methyl-(S,S,R)-Dolaisoleuinyl-(S,R,R)-Dolaproinyl-L- Phenylalanine N-2,5-Dichlorophenyl Amide”, 46%; for “L-Dolavalyl-L-Valyl-N-Methyl-(S,S,R)-Dolaisoleuinyl-(S,R,R)-Dolaproinyl-L- Phenylalanine N-2-(6-Chloro)benzothiazole Amide”, 83%.
“L-Dolavalyl-L-Valyl-N-Methyl-(S,S,R)-Dolaisoleuinyl-(S,R,R)-Dolaproinyl-L- Phenylalanine N-2-(6-Fluoro)benzothiazole Amide” had a step yield of 58%.
For “L-Dolavalyl-L-Valyl-N-Methyl-(S,S,R)-Dolaisoleuinyl-(S,R,R)-Dolaproinyl-L- Phenylalanine N-3-Chlorophenyl Amide” the value was 77%.
For “L-Dolavalyl-L-Valyl-N-Methyl-(S,S,R)-Dolaisoleuinyl-(S,R,R)-Dolaproinyl-L- Phenylalanine N-4-Chlorophenyl Amide” the value was 93%; for “L-Dolavalyl-L-Valyl-N-Methyl-(S,S,R)-Dolaisoleuinyl-(S,R,R)-Dolaproinyl-L- Proline N-2-Benzothiazole Amide”, 80%; for “L-Dolavalyl-L-Valyl-N-Methyl-(S,S,R)-Dolaisoleuinyl-(S,R,R)-Dolaproinyl-L- Proline N-3-Quinoline Amide”, 82%.
